For this assay, the system named is L1210 leukemia ip in BDF1 mice, survival T/C. The assay can be described thus: NCI In Vivo Anticancer Drug Screen. Data for tumor model L1210 Leukemia (intraperitoneal) in B6D2F1 (BDF1) mice. As to conditions: T/C endpoint: mean survival time, higher T/C = longer survival.
[1] abbreviates: dose: 100.0 mg/kg/injection, schedule: Q04DX002 (ip), vehicle: saline.
[2] abbreviates: dose: 200.0 mg/kg/injection, schedule: Q04DX002 (ip), vehicle: saline.

Structures are written as SMILES. The list is a part of this screen's results and no random one: it covers a few groups of compounds. Other doses and runs of a compound may be missing. T/C is the treated group as % of the vehicle group. Some entries give survivors of the animals treated and no T/C: the source holds a T/C of zero for them, seemingly a mark for toxic or unscored doses. Some survivor counts are full or nearly so, which does not show that the dose was tolerated: the source hardly ever lists a survival T/C far under the control, and the zero likely stands for such cases as well. Survivors were counted at the toxicity check, usually on the fifth day, unless a day is given; later deaths do not show. Schedule codes are those of the source, read here as Q, the interval in days (D) or hours (H), X, the number of doses. Where survival is the endpoint, the PubChem record calls one and a half times the control and up active, and a quarter to a half above the control has no call in these data; cut-offs in other NCI protocols can differ. Some entries hold several experiments; the results are listed from low to high. Some schedule codes hold Z or #, which are not explained here. Some T/C values are marked as having no survivor count here; that says nothing about deaths at the dose. Some T/C values carry the count of animals alive at the toxicity check (mostly the fifth day); without a count or a note in brackets, all were alive then.

`COC(=O)C1(C)COP(=O)(Nc2ccccc2)OC1` (centres undefined): the survivor count (dose: 100.0 mg/kg/injection, schedule: Q01DX001 (ip), vehicle: saline) was 4 of 4 and the survivor count (dose: 400.0 mg/kg/injection, schedule: Q01DX001 (ip), vehicle: saline) is on record as 4 of 4. In addition, the T/C (dose: 200.0 mg/kg/injection, schedule: Q01DX001 (ip), vehicle: saline) was 96 % of control.

Turning to `COP(C)(=O)OC(N)(N)SC` (centres undefined), the T/C runs as follows: under setting [1], 93 % of control [survivor count not shown]; under setting [2], 96 % of control [survivor count not shown]; (dose: 400.0 mg/kg/injection, schedule: Q04DX002 (ip), vehicle: saline) 101 % of control [survivor count not shown].

Regarding `C1CCN(P2OCCO2)CC1`, the T/C is, setting by setting: (dose: 100.0 mg/kg/injection, schedule: Q04DX002 (ip), vehicle: saline with Tween-80) 105 % of control; (dose: 200.0 mg/kg/injection, schedule: Q04DX002 (ip), vehicle: saline with Tween-80) 102 % of control; (dose: 400.0 mg/kg/injection, schedule: Q04DX002 (ip), vehicle: saline with Tween-80) 94 % of control.

As to `O=C(NCC(=O)N(CCCl)CCCl)Oc1ccccc1`, the T/C is 111 % of control (dose: 50.0 mg/kg/injection, schedule: Q01DX001 (ip), vehicle: carboxymethylcellulose (CMC)); 111 % of control (dose: 100.0 mg/kg/injection, schedule: Q01DX001 (ip), vehicle: carboxymethylcellulose (CMC)); 94 % of control (dose: 200.0 mg/kg/injection, schedule: Q01DX001 (ip), vehicle: carboxymethylcellulose (CMC)); 97 % of control (dose: 400.0 mg/kg/injection, schedule: Q01DX001 (ip), vehicle: carboxymethylcellulose (CMC)).

As to `ClCCN(CCCl)B1SCCCS1`, the T/C was 104 % of control (dose: 1.6 mg/kg/injection, schedule: Q01DX001 (ip), vehicle: saline); 103 % of control (dose: 3.12 mg/kg/injection, schedule: Q01DX001 (ip), vehicle: saline); 101 and 127 % of control (dose: 6.25 mg/kg/injection, schedule: Q01DX001 (ip), vehicle: saline); 114 % of control (dose: 12.5 mg/kg/injection, schedule: Q01DX001 (ip), vehicle: saline); 125 % of control (dose: 25.0 mg/kg/injection, schedule: Q01DX001 (ip), vehicle: saline); 102 % of control (dose: 50.0 mg/kg/injection, schedule: Q01DX001 (ip), vehicle: saline).

With `O=[N+]([O-])c1cc([N+](=O)[O-])c2ccc3c([N+](=O)[O-])cc([N+](=O)[O-])c4ccc1c2c43`, the T/C (dose: 100.0 mg/kg/injection, schedule: Q01DX009 (ip), vehicle: Klucel (hydroxypropylcellulose) (HPC)) is 100 % of control; the T/C (dose: 100.0 mg/kg/injection, schedule: Q04DX003 (ip), vehicle: Klucel (hydroxypropylcellulose) (HPC)) is 102 % of control; the T/C (dose: 200.0 mg/kg/injection, schedule: Q01DX009 (ip), vehicle: Klucel (hydroxypropylcellulose) (HPC)) was 104 % of control [4 of 6 alive]; the T/C (dose: 200.0 mg/kg/injection, schedule: Q04DX003 (ip), vehicle: Klucel (hydroxypropylcellulose) (HPC)) was 98 % of control; the T/C (dose: 400.0 mg/kg/injection, schedule: Q01DX009 (ip), vehicle: Klucel (hydroxypropylcellulose) (HPC)) was 96 % of control; the T/C (dose: 400.0 mg/kg/injection, schedule: Q04DX003 (ip), vehicle: Klucel (hydroxypropylcellulose) (HPC)) was 96 % of control.

For the compound `CN(C)P(=O)(Cl)Cl`, the T/C by setting is: under setting [1], 101 % of control [survivor count not shown]; under setting [2], 93 % of control [survivor count not shown].

Consider `Clc1nc(Cl)nc(NCCBr)n1`, for which the T/C by setting is: (dose: 75.0 mg/kg/injection, schedule: Q01DX001 (ip), vehicle: carboxymethylcellulose (CMC)) 102 % of control; (dose: 150.0 mg/kg/injection, schedule: Q01DX001 (ip), vehicle: carboxymethylcellulose (CMC)) 106 % of control; (dose: 300.0 mg/kg/injection, schedule: Q01DX001 (ip), vehicle: carboxymethylcellulose (CMC)) 98 % of control.

For `O=C1CCOP(=O)(N(CCCl)CCCl)N1` (centres undefined), the T/C was 96 % of control (dose: 100.0 mg/kg/injection, schedule: Q04DX002 (ip), vehicle: Klucel (hydroxypropylcellulose) (HPC)); 99 % of control (dose: 200.0 mg/kg/injection, schedule: Q04DX002 (ip), vehicle: Klucel (hydroxypropylcellulose) (HPC)); 105 % of control (dose: 400.0 mg/kg/injection, schedule: Q04DX002 (ip), vehicle: Klucel (hydroxypropylcellulose) (HPC)).

For the compound `CCN(CCCl)C1C(O)C(O)OC(CO)C1O` (centres undefined), the T/C (dose: 18.0 mg/kg/injection, schedule: Q01DX Z (ip), vehicle: saline) was 125 % of control and the T/C (dose: 27.0 mg/kg/injection, schedule: Q01DX Z (ip), vehicle: saline) is 121 % of control.

Take `CN(C)CCOC(=O)C(O)(Cc1ccccc1)c1ccccc1` (centres undefined): the T/C was 105 % of control (dose: 50.0 mg/kg/injection, schedule: Q01DX009 (ip), vehicle: saline); 105 % of control (dose: 100.0 mg/kg/injection, schedule: Q01DX009 (ip), vehicle: saline); 94 % of control (dose: 200.0 mg/kg/injection, schedule: Q01DX009 (ip), vehicle: saline).

Consider `ClCCN1CCCCc2ccccc2C1`, for which the T/C (dose: 15.0 mg/kg/injection, schedule: Q01DX001 (ip), vehicle: saline) is 105 % of control. Besides, the survivor count by setting is: (dose: 30.0 mg/kg/injection, schedule: Q01DX001 (ip), vehicle: saline) 3 of 6; (dose: 60.0 mg/kg/injection, schedule: Q01DX001 (ip), vehicle: saline) 0 of 6; (dose: 75.0 mg/kg/injection, schedule: Q01DX001 (ip), vehicle: saline) 0 of 6; (dose: 150.0 mg/kg/injection, schedule: Q01DX001 (ip), vehicle: saline) 0 of 6; (dose: 300.0 mg/kg/injection, schedule: Q01DX001 (ip), vehicle: saline) 1 of 6.

Source of the values: PubChem BioAssay AID248 (DTP/NCI, 2004).
